Data as given in PubChem BioAssay AID743121 (NCATS, 2013)
Test: 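Partners whose loss is lethal together with topoisomerase I blockade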 (primary screen). Cells: MDA-MB-231 cells, a human breast cancer line. Reagents: single siRNA against human genes, 20 nM siRNA (0.8 pmol per well). Time to read-out: 120 h (drug added 48 h after transfection, read 72 h later). Treatment: camptothecin 20 nM (about EC30) for 72 h; vehicle 0.1% DMSO in parallel plates. Measured: 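Cell viability by ATP luminescence (CellTiter-Glo) as % of non-targeting siRNA wells, and the log2 ratio of viability without drug over viability with camptothecin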. Direction: log2 vehicle/camptothecin viability: higher = stronger sensitisation to camptothecin; viability with camptothecin and viability without drug: higher = more viable cells. Active means: 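Active genes have an RSA gene-level p-value below 0.001, computed from the ratios of their separate siRNAs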.
This is a random part of about 26,000 reagents tested. In the full data, 167 (0.63%) are marked active. 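Calls are per gene from RSA p-values that are not deposited; an individual active-marked siRNA can sensitise only weakly.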 Unmarked entries are inactive.

| Target gene | PubChem SID | log2 vehicle/camptothecin viability | viability with camptothecin (% of control) | viability without drug (% of control) |
| --- | --- | --- | --- | --- |
| RSU1 (GeneID 6251) | SID164386673 | -0.195 | 105 | 91.7 |
| RSU1 (GeneID 6251) | SID164386674 | -0.0959 | 118 | 111 |
| RSU1 (GeneID 6251) | SID164386675 | 0.0259 | 76.5 | 77.9 |
| PPP1CC (GeneID 5501) | SID164382060 | -0.156 | 96 | 86.2 |
| PPP1CC (GeneID 5501) | SID164382061 | -0.399 | 103 | 77.9 |
| PPP1CC (GeneID 5501) | SID164382065 | -0.0355 | 107 | 104 |
| PPP1CC (GeneID 5501) | SID164382066 | 1.5 | 16.7 | 47.2 |
| ALDH16A1 (GeneID 126133) | SID164567749 | -0.0846 | 85.1 | 80.3 |
| ALDH16A1 (GeneID 126133) | SID164567753 | 1.16 | 35.7 | 79.6 |
| ALDH16A1 (GeneID 126133) | SID164567756 | -0.314 | 60.1 | 48.3 |
| ALDH16A1 (GeneID 126133) | SID164567757 | -0.0566 | 59 | 56.7 |
| NADK (GeneID 65220) | SID164505627 | -0.82 | 77.1 | 43.7 |
| NADK (GeneID 65220) | SID164505628 | -0.592 | 85.6 | 56.8 |
| NADK (GeneID 65220) | SID164505629 | -0.302 | 56 | 45.4 |
| NADK (GeneID 65220) | SID164505631 | -0.518 | 83.3 | 58.2 |
| TM2D3 (GeneID 80213) | SID164535598 | -0.305 | 71.9 | 58.2 |
| TM2D3 (GeneID 80213) | SID164535600 | -0.141 | 104 | 94.3 |
| TM2D3 (GeneID 80213) | SID164535601 | -0.459 | 86.7 | 63.1 |
| TM2D3 (GeneID 80213) | SID164535602 | -0.107 | 78.6 | 73 |
| NET1 (GeneID 10276) | SID164409984 | -0.251 | 93.7 | 78.7 |
| NET1 (GeneID 10276) | SID164409985 | 0.179 | 87.8 | 99.4 |
| NET1 (GeneID 10276) | SID164409986 | -0.14 | 87 | 78.9 |
| NET1 (GeneID 10276) | SID164409988 | 0.212 | 78.3 | 90.7 |
| SDC1 (GeneID 6382) | SID164387433 | -0.446 | 49.6 | 36.4 |
| SDC1 (GeneID 6382) | SID164387434 | -0.306 | 73.2 | 59.2 |
| SDC1 (GeneID 6382) | SID164387437 | -0.668 | 60.5 | 38.1 |
| SDC1 (GeneID 6382) | SID164387438 | 0.0527 | 67.6 | 70.1 |
| PRKAR1B (GeneID 5575) | SID164382554 | -0.0886 | 94.9 | 89.3 |
| PRKAR1B (GeneID 5575) | SID164382557 | -0.314 | 68.2 | 54.9 |
| PRKAR1B (GeneID 5575) | SID164382559 | -0.36 | 106 | 82.9 |
| PRKAR1B (GeneID 5575) | SID164382560 | -0.401 | 97.2 | 73.6 |
